The list shows a part of the results. Residues, ends and D or L forms follow the SMILES beside them. *: point of attachment. Cbz = O=C(OCc1ccccc1)*
Experiments:
Test in all cases: log2 fold change, soluble protein after heating vs DMSO (PISA); higher = thermal stabilisation; K562 cells, 10 uM, 30 min; active = over 0.2 and 3.5 SD of the protein, either way, in both replicates (recomputed)
erlotinib = compound: C#Cc1cccc(Nc2ncnc3cc(OCCOC)c(OCCOC)cc23)c1 [erlotinib]
How it was run: (§1)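 K562 cells (2×10^6 cells/mL) were treated with 10 μM compound for 30 min, and aliquots were heated for 3 min over 48°C-58°C. Pooled aliquots were extracted in PBS with 0.5% NP-40 at 4°C, and the supernatant after 21,000xg for 90 min was measured by TMTpro 16plex LC-MS/MS with channel sums equalised. Reported thermal stability, relative to control samples and from duplicates, is a log2 fold change.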

Protein sequences, listed by entry. Tags and fused reporters are not part of them. Lines headed by an entry give the natural chain unless they say otherwise; changes in a name come on top.
UniProt A0FGR8: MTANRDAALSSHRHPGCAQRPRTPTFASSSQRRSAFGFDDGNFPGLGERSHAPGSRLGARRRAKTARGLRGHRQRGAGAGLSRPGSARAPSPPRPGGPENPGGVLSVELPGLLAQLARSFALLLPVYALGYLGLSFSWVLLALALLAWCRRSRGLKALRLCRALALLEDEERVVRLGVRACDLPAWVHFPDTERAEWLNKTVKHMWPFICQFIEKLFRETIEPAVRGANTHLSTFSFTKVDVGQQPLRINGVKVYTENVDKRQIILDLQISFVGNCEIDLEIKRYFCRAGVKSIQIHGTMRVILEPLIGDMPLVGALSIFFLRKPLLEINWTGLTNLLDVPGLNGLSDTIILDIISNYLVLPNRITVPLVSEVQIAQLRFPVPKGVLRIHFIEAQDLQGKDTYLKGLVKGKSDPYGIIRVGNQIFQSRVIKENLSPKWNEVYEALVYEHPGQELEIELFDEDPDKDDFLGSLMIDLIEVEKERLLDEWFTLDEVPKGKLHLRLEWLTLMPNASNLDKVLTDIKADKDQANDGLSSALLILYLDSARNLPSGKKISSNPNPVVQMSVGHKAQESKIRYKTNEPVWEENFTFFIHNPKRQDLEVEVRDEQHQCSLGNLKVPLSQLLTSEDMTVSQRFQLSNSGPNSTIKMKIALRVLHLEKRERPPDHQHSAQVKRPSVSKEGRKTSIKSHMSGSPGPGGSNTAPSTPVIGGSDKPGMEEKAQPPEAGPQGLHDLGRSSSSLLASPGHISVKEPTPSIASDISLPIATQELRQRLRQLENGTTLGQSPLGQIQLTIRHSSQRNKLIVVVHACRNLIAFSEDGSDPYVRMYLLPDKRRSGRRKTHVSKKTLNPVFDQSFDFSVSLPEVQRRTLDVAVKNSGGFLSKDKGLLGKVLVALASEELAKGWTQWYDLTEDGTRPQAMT
UniProt P07099: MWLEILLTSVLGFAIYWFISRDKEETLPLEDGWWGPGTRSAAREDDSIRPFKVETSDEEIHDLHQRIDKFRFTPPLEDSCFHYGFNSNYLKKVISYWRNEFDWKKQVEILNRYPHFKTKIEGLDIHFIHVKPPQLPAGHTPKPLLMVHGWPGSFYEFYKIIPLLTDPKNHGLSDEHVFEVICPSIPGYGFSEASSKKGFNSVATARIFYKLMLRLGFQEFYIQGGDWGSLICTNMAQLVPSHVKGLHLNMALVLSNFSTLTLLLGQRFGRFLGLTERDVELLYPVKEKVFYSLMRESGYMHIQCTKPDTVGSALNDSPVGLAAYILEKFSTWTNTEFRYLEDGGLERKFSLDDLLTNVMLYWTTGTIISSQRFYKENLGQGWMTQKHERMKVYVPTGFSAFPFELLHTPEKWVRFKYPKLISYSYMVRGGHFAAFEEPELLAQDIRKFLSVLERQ
UniProt Q06265, whole entry, looked up: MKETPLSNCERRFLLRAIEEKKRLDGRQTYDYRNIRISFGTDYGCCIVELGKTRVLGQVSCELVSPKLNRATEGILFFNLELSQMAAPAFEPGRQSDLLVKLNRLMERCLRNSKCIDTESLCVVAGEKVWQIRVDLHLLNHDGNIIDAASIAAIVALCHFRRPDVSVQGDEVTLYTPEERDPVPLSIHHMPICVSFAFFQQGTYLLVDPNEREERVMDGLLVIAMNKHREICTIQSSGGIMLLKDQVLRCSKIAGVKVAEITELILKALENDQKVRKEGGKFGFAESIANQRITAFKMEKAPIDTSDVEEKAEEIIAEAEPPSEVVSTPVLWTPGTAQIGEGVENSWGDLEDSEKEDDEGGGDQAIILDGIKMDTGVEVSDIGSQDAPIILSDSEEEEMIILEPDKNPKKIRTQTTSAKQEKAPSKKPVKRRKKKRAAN
UniProt O75063: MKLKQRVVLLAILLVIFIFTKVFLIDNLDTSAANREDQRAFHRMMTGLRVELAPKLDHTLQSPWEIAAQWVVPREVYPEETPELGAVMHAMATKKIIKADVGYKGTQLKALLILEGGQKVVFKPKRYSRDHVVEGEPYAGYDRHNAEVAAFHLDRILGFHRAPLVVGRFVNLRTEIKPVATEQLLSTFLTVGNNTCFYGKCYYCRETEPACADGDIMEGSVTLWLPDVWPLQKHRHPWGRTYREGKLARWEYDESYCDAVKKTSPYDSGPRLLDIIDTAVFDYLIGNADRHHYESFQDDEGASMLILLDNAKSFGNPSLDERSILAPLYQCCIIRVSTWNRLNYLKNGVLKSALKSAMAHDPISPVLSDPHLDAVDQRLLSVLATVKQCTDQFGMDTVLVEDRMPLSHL
UniProt P84090, whole entry, looked up: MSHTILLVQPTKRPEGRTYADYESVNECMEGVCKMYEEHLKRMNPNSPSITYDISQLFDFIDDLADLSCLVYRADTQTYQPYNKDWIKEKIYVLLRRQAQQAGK
UniProt Q92889: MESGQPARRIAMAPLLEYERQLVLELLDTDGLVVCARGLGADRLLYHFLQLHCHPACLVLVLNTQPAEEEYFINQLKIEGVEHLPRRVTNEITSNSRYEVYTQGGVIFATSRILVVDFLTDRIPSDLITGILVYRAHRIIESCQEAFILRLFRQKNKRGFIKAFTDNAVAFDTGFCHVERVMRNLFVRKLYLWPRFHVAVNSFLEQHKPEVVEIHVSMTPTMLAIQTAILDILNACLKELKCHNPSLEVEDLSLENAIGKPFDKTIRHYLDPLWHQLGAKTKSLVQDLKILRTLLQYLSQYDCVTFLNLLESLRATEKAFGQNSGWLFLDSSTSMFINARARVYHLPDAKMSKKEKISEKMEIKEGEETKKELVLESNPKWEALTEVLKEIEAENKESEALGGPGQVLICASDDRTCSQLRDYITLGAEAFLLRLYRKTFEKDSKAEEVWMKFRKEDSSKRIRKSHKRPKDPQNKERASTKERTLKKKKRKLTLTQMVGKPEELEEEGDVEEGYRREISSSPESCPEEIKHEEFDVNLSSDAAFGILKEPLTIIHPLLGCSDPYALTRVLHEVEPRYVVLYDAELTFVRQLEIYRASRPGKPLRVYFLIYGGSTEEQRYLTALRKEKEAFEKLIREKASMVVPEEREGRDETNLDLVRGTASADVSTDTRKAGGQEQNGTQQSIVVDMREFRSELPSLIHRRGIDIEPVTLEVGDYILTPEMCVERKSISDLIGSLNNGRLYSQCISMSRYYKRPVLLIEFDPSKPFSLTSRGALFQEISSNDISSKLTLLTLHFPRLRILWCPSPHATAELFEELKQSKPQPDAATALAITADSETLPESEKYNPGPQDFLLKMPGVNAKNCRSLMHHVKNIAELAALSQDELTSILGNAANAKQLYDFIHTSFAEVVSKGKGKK
UniProt Q96PL5: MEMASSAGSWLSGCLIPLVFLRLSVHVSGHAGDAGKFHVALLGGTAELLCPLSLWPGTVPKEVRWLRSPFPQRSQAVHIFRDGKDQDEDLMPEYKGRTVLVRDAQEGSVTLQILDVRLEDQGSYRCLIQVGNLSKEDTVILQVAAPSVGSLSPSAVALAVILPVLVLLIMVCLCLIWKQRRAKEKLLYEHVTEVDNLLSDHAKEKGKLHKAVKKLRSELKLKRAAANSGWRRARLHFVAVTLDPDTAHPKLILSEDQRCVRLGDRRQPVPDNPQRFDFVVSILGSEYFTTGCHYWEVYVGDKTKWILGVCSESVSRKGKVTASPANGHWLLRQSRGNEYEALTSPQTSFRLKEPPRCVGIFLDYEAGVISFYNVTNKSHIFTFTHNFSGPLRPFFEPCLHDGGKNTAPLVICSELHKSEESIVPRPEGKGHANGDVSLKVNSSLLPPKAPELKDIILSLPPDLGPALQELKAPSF
UniProt P11474: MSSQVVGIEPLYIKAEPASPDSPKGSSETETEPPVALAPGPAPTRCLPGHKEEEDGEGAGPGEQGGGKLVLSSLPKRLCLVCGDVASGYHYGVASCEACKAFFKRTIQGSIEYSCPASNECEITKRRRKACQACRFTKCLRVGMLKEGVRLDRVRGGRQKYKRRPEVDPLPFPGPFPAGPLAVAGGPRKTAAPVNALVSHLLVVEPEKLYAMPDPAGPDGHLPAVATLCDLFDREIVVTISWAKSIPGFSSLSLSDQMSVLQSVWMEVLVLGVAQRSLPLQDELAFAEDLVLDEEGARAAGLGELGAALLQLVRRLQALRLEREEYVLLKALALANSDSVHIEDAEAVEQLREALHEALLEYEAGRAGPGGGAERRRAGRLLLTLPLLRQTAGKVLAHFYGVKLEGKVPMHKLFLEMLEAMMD
UniProt Q01469, whole entry, looked up: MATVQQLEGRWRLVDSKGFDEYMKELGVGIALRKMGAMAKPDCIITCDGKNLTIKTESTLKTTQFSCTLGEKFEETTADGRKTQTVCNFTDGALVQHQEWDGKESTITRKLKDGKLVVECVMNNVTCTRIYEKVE
UniProt Q9UNN5: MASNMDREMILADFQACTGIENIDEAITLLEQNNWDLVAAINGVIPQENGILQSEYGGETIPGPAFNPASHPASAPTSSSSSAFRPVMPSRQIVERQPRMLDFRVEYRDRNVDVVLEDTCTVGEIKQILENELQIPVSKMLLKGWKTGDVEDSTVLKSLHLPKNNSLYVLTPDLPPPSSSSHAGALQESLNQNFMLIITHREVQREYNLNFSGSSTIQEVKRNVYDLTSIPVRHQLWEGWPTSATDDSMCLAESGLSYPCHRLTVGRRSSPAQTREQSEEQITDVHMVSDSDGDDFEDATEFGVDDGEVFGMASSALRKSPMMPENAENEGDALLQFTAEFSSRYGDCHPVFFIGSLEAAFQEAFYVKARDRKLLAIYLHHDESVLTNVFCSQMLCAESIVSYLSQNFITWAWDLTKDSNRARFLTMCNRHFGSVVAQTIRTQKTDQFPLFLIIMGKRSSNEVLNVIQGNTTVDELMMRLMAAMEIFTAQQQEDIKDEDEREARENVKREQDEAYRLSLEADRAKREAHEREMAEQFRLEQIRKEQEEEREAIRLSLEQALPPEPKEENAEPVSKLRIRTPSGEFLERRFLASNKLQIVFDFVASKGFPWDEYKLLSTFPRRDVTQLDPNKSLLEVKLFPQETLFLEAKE
UniProt Q96HE7: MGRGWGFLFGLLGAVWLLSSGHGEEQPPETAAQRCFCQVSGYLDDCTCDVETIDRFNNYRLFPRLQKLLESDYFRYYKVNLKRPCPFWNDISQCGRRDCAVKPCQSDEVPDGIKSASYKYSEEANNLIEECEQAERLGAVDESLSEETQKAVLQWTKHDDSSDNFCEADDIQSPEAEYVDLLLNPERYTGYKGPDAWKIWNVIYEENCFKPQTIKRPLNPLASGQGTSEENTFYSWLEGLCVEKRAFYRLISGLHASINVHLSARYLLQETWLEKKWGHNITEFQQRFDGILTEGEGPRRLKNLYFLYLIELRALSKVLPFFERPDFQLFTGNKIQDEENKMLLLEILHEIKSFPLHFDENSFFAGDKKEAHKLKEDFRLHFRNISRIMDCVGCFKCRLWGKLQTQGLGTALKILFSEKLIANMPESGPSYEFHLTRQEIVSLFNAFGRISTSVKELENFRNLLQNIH
UniProt P42566: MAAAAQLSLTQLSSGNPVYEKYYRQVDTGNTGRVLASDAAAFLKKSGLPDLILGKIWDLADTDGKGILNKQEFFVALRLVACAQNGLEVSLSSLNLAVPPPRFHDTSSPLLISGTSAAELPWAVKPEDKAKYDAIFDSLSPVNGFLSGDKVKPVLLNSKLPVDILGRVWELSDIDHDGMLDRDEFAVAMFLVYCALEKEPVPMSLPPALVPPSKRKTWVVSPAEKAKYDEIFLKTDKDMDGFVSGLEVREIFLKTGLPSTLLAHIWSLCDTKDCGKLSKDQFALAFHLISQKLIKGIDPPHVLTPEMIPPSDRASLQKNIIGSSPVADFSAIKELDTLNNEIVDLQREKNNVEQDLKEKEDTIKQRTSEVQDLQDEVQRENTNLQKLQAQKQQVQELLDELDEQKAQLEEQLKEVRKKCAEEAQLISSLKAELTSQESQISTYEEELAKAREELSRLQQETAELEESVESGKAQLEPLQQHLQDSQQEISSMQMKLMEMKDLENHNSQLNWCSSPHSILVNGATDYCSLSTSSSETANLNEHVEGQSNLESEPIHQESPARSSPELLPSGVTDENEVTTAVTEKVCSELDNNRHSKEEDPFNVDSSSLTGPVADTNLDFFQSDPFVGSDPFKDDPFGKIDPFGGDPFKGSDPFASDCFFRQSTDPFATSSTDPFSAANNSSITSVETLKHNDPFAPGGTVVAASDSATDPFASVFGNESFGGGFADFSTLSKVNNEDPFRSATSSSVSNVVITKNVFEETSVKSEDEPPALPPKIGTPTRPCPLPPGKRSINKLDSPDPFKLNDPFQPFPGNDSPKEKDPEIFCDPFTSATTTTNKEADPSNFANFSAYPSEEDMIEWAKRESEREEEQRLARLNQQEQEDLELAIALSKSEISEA

[1] = compound: C/C(=N\NC(=O)C1=CC(=CC=C1)S(=O)(=O)N2CCOCC2)/C3=C(C=CC(=C3)Cl)O
How it was run: as §1

[2] = compound: C1=CC(=C(C=C1Cl)C2=NC3=NC=CN=C3C(=N2)NC4=CC=NC=C4)F
How it was run: as §1

[3] = compound: C1=CC(=CC=C1C2=NC3=C(N2)C=C(C=C3)C(=O)N)OC4=CC=C(C=C4)Cl
How it was run: as §1

[4] = compound: C1=CC2=C(C=CC(=C2)/C=C\3/C(=O)NC(=NCC4=CC=CS4)S3)N=C1
How it was run: as §1

[5] = compound: C1=CC2=NC=CN=C2C=C1/C=C/3\C(=O)NC(=O)S3
How it was run: as §1

[6] = compound: C1=CC=C(C=C1)C2=NC(=C(N2)C3=CC=NC=C3)C4=CC(=C(C=C4)Cl)O
How it was run: as §1

[7] = compound: C1=CC=C2C(=C1)C3=NNC4=CC=CC(=C43)C2=O
How it was run: as §1

[8] = compound: C1CCN(C1)C(=O)NC2=CC=CC(=C2)NC3=NC=C(C(=N3)NCCC4=CN=CN4)Br
How it was run: as §1

[9] = compound: C1CN(CCC1(CC2=CC=C(C=C2)Cl)N)C3=NC=NC4=C3C=CN4
How it was run: as §1

IRAK-1-4 Inhibitor I = compound: C1COCCN1CCN2C3=CC=CC=C3N=C2NC(=O)C4=CC(=CC=C4)[N+](=O)[O-] [IRAK-1-4 Inhibitor I]
How it was run: as §1

ibrutinib = compound: C=CC(=O)N1CCC[C@@H](n2nc(-c3ccc(Oc4ccccc4)cc3)c3c(N)ncnc32)C1 [ibrutinib]
How it was run: as §1

[10] = compound: CC(=O)c1cnc2ccc(-c3cc(Cl)c(O)c(Cl)c3)nc2c1N[C@H]1CC[C@H](CN(C)C)CC1
How it was run: as §1

ralimetinib = compound: CC(C)(C)Cn1c(N)nc2ccc(-c3[nH]c(C(C)(C)C)nc3-c3ccc(F)cc3)nc21 [ralimetinib]
How it was run: as §1

[11] = compound: CC(C)(O)CC(=O)NCCn1ccc2ncnc(Nc3ccc(Oc4cccc(C(F)(F)F)c4)c(Cl)c3)c21
How it was run: as §1

[12] = compound: CC(C)C1=C2N=C(C=C(N2N=C1)NCC3=CC=CC=C3)NCCCCCCN
How it was run: as §1

[13] = compound: CC(C)C[C@@H](C=O)NC(=O)[C@H](CC(C)C)NC(=O)[C@H](CC(C)C)NC(=O)OCc1ccccc1
How it was run: as §1

pinometostat = compound: CC(C)N(C[C@H]1O[C@@H](n2cnc3c(N)ncnc32)[C@H](O)[C@@H]1O)[C@H]1C[C@@H](CCc2nc3cc(C(C)(C)C)ccc3[nH]2)C1 [pinometostat]
How it was run: as §1

[14] = compound: CC1=C(C(CC(=O)N1)C2=CC=C(C=C2)C(F)(F)F)C(=O)NC3=C(C=C4C(=C3)C=NN4)F
How it was run: as §1

[15] = compound: CC1=C(C2=C(C=C1)C(=O)C3=CC=CC=C3N2CCCN)C
How it was run: as §1

Measured: log2 fold change

ESYT2 isoform 2 (UniProt A0FGR8)
inactive: erlotinib 0.048 | [1] 0.031 | [2] 0.026 | [3] 0.01 | [4] 0.096 | [5] -0.016 | [6] 0.022 | [7] -0.027 | [8] 0.004 | [9] -0.01 | IRAK-1-4 Inhibitor I 0.02 | ibrutinib -0.003 | [10] -0.111 | ralimetinib 0 | [11] -0.009 | [12] -0.11 | [13] 0 | pinometostat -0.04 | [14] -0.04 | [15] 0.086

EPHX1 (UniProt P07099)
inactive: erlotinib -0.039 | [1] 0.051 | [2] 0.007 | [3] 0.038 | [4] -0.044 | [5] 0.031 | [6] 0.007 | [7] -0.045 | [8] 0.028 | [9] 0.06 | IRAK-1-4 Inhibitor I 0.01 | ibrutinib 0.034 | [10] -0.003 | ralimetinib -0.044 | [11] 0.025 | [12] 0.042 | [13] -0.012 | pinometostat -0.04 | [14] 0.005 | [15] 0.011

EXOSC9 isoform 2 (UniProt Q06265)
inactive: erlotinib 0.002 | [1] -0.03 | [2] 0.025 | [3] 0.022 | [4] -0.05 | [5] 0.059 | [6] -0.075 | [7] 0.003 | [8] -0.036 | [9] 0.053 | IRAK-1-4 Inhibitor I 0.005 | ibrutinib 0.019 | [10] 0.082 | ralimetinib -0.045 | [11] 0.005 | [12] 0.069 | [13] 0.095 | pinometostat -0.002 | [14] 0.016 | [15] 0.026

ERAP1 isoform 2 (UniProt Q9NZ08)
inactive: erlotinib -0.041 | [1] -0.022 | [2] -0.032 | [3] -0.02 | [4] -0.021 | [5] 0 | [6] 0.014 | [7] 0.007 | [8] -0.017 | [9] -0.013 | IRAK-1-4 Inhibitor I -0.046 | ibrutinib -0.018 | [10] 0.021 | ralimetinib 0.037 | [11] 0.021 | [12] -0.039 | [13] 0.038 | pinometostat 0.022 | [14] -0.007 | [15] 0.019

ERCC3 (UniProt P19447)
inactive: erlotinib -0.012 | [1] 0.058 | [2] -0.189 | [3] -0.081 | [4] 0.114 | [5] -0.078 | [6] 0.101 | [7] 0.051 | [8] -0.098 | [9] -0.162 | IRAK-1-4 Inhibitor I -0.101 | ibrutinib 0.074 | [10] -0.102 | ralimetinib 0.09 | [11] 0.016 | [12] -0.149 | [13] 0.026 | pinometostat -0.018 | [14] -0.116 | [15] 0.114

EXOSC2 (UniProt Q13868)
inactive: erlotinib 0.025 | [1] -0.005 | [2] -0.004 | [3] 0.013 | [4] 0.029 | [5] -0.005 | [6] -0.022 | [7] -0.001 | [8] -0.061 | [9] 0.032 | IRAK-1-4 Inhibitor I 0.022 | ibrutinib 0.049 | [10] -0.002 | ralimetinib -0.008 | [11] 0 | [12] 0.07 | [13] -0.028 | pinometostat -0.011 | [14] 0.014 | [15] 0.06

FAM20B (UniProt O75063)
inactive: erlotinib -0.03 | [1] 0.087 | [2] -0.022 | [3] -0.006 | [4] -0.033 | [5] -0.027 | [6] 0.044 | [7] 0.058 | [8] -0.012 | [9] 0.034 | IRAK-1-4 Inhibitor I -0.015 | ibrutinib -0.035 | [10] -0.07 | ralimetinib 0.001 | [11] -0.009 | [12] 0.043 | [13] -0.018 | pinometostat -0.003 | [14] 0.051 | [15] -0.022

Quoted at random: 2 entries already listed.
EXOSC2 (UniProt Q13868)
inactive: erlotinib 0.025 | [1] -0.005 | [2] -0.004 | [3] 0.013 | [4] 0.029 | [5] -0.005 | [6] -0.022 | [7] -0.001 | [8] -0.061 | [9] 0.032 | IRAK-1-4 Inhibitor I 0.022 | ibrutinib 0.049 | [10] -0.002 | ralimetinib -0.008 | [11] 0 | [12] 0.07 | [13] -0.028 | pinometostat -0.011 | [14] 0.014 | [15] 0.06

FAM20B (UniProt O75063)
inactive: erlotinib -0.03 | [1] 0.087 | [2] -0.022 | [3] -0.006 | [4] -0.033 | [5] -0.027 | [6] 0.044 | [7] 0.058 | [8] -0.012 | [9] 0.034 | IRAK-1-4 Inhibitor I -0.015 | ibrutinib -0.035 | [10] -0.07 | ralimetinib 0.001 | [11] -0.009 | [12] 0.043 | [13] -0.018 | pinometostat -0.003 | [14] 0.051 | [15] -0.022

Going on with the list.

ERH (UniProt P84090)
inactive: erlotinib -0.033 | [1] -0.012 | [2] 0.048 | [3] 0.036 | [4] 0.014 | [5] 0.017 | [6] -0.017 | [7] -0.009 | [8] -0.088 | [9] -0.104 | IRAK-1-4 Inhibitor I -0.08 | ibrutinib 0.231 | [10] -0.203 | ralimetinib -0.151 | [11] -0.138 | [12] -0.028 | [13] 0.02 | pinometostat -0.035 | [14] 0.006 | [15] 0.154

ERCC4 (UniProt Q92889)
inactive: erlotinib 0.093 | [1] 0.005 | [2] 0.012 | [3] -0.045 | [4] 0.123 | [5] 0.023 | [6] 0.045 | [7] 0 | [8] 0.214 | [9] -0.162 | IRAK-1-4 Inhibitor I -0.06 | ibrutinib -0.044 | [10] -0.022 | ralimetinib -0.015 | [11] -0.007 | [12] -0.201 | [13] -0.033 | pinometostat -0.01 | [14] -0.039 | [15] -0.144

ERMAP (UniProt Q96PL5)
inactive: erlotinib -0.061 | [1] -0.046 | [2] -0.033 | [3] -0.041 | [4] 0.048 | [5] 0.016 | [6] -0.04 | [7] -0.031 | [8] -0.055 | [9] 0.036 | IRAK-1-4 Inhibitor I -0.014 | ibrutinib 0.041 | [10] 0.01 | ralimetinib -0.188 | [11] 0.013 | [12] -0.043 | [13] 0.139 | pinometostat 0.114 | [14] -0.001 | [15] 0.008

ESRRA (UniProt P11474)
inactive: erlotinib 0.029 | [1] 0.028 | [2] -0.022 | [3] 0.007 | [4] 0.043 | [5] -0.024 | [6] -0.065 | [7] -0.076 | [8] 0.009 | [9] 0.158 | IRAK-1-4 Inhibitor I 0.038 | ibrutinib 0.016 | [10] -0.029 | ralimetinib 0.002 | [11] -0.141 | [12] 0.141 | [13] 0.047 | pinometostat 0.136 | [14] 0.061 | [15] -0.078

FABP5 (UniProt Q01469)
inactive: erlotinib -0.037 | [1] 0.096 | [2] 0.035 | [3] 0.017 | [4] -0.125 | [5] 0.014 | [6] 0.083 | [7] 0 | [8] 0.019 | [9] -0.011 | IRAK-1-4 Inhibitor I 0.03 | ibrutinib -0.007 | [10] 0.045 | ralimetinib 0.035 | [11] 0.012 | [12] 0.029 | [13] -0.08 | pinometostat -0.044 | [14] 0.037 | [15] 0.001

FAF1 (UniProt Q9UNN5)
inactive: erlotinib 0.015 | [1] 0.028 | [2] 0.073 | [3] -0.008 | [4] -0.012 | [5] 0.017 | [6] 0.003 | [7] -0.022 | [8] 0.015 | [9] 0.017 | IRAK-1-4 Inhibitor I 0.014 | ibrutinib -0.017 | [10] 0.019 | ralimetinib -0.027 | [11] -0.021 | [12] 0 | [13] -0.043 | pinometostat -0.036 | [14] 0.001 | [15] -0.049

ERP29 (UniProt P30040)
inactive: erlotinib -0.07 | [1] -0.004 | [2] 0.024 | [3] -0.004 | [4] -0.022 | [5] -0.03 | [6] -0.005 | [7] 0.018 | [8] 0.014 | [9] -0.004 | IRAK-1-4 Inhibitor I -0.002 | ibrutinib 0.003 | [10] 0.022 | ralimetinib 0.008 | [11] 0.037 | [12] -0.019 | [13] 0.006 | pinometostat -0.023 | [14] 0.001 | [15] -0.015

ERO1A (UniProt Q96HE7)
inactive: erlotinib -0.012 | [1] -0.004 | [2] 0.001 | [3] 0.012 | [4] 0.005 | [5] 0.018 | [6] -0.017 | [7] 0.008 | [8] 0.009 | [9] -0.025 | IRAK-1-4 Inhibitor I -0.021 | ibrutinib -0.004 | [10] -0.002 | ralimetinib 0.001 | [11] 0.015 | [12] -0.004 | [13] -0.017 | pinometostat 0.038 | [14] 0.009 | [15] -0.02

EPS15 (UniProt P42566)
inactive: erlotinib -0.012 | [1] 0.015 | [2] -0.004 | [3] -0.033 | [4] 0.003 | [5] 0.055 | [6] -0.011 | [7] -0.011 | [8] 0.015 | [9] -0.206 | IRAK-1-4 Inhibitor I -0.023 | ibrutinib -0.039 | [10] 0.042 | ralimetinib 0.024 | [11] -0.081 | [12] -0.183 | [13] 0.006 | pinometostat 0.008 | [14] -0.038 | [15] -0.153

— the supplement of paper PMC10849652
